Reference: PubChem BioAssay AID1195 (EPA DSSTox, 2008)

Test system: human maximum recommended daily dose, FDA database
Assay: DSSTox (FDAMDD) FDA Maximum (Recommended) Daily Dose Database
Conditions: TherapeuticCategory: none; stronger effect = lower value
From the text: The Food and Drug Administration (FDA) Center for Drug Evaluation and Research, Office of Pharmaceutical Science, Informatics and Computational Safety Analysis Staff's Maximum Recommended Daily Dose (FDAMDD) database contains values for over 1200 pharmaceuticals listed in Martindale: The Extra Pharmacopoeia (1973, 1983, and 1993) and The Physicians' Desk Reference (1995 and 1999). Some classes of chemicals were excluded from the FDAMDD database due to their unsuitability for most QSAR modeling programs. These were inorganic chemicals, high molecular weight polymers (>5000 Daltons), fibers, salts, mixtures of organic chemicals, and small molecules (<100 Daltons). FDAMDD is the non-proprietary portion of the database that was used in the QSAR analysis reported in the Main Citation. DSSTox FDAMDD has fewer substance records than the original MRDD Source database due to consolidation of partial structures (i.e., complexed entities) into a single record and elimination of duplicate entries. […]
Maximum recommended daily dose (or maximum recommended therapeutic dose) values were determined from pharmaceutical clinical trials that employed an oral route of exposure and daily treatments, usually for 3-12 months. […]

CC(=O)N(C)C
maximum recommended daily dose (mmol/kg-bw/day): 0.00669
